Data as given in PubChem BioAssay AID1259308 (NCATS, 2017).

- Test: 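Genes whose loss raises luciferase production in HEK293 cells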 (primary screen)
- System: human HEK293 embryonic kidney cells stably expressing firefly luciferase (HEK-CMV-Luc2-Hygro)
- Reagent: single siRNA against human genes, 0.8 pmol siRNA per well
- Timing: 72 h
- Detection: 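Reporter luminescence and viable-cell signal on separate replicate plates, given as percent of non-targeting control and median/MAD z-scores, plus per-cell luciferase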
- Direction: total luciferase, z-score and total luciferase, % of control: higher = more reporter protein produced
- Hit rule: 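Active when the median/MAD z-score for overall luciferase is greater than 3; a gene was taken forward for validation with new siRNAs if at least two of its three siRNAs passed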
- Meaning of the calls: active = raised luciferase; inactive = no rise
This is one part, drawn at random, of about 59,000 reagents. In the full data, about 1,510 (2.6%) are marked active. 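Calls use total luciferase alone and ignore viability, so some active siRNAs may act by altering cell number.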 A number with no mark means an inactive call. The numbers tell different reagents against one gene apart. Further read-outs or replicates are left out here.

total luciferase, z-score	total luciferase, % of control	gene	siRNA no.
0.795	97.7	FOXK1	1
-2.76	27	FOXK1	2
-0.238	77.2	FOXK1	3
-0.567	70.6	CARD17P	1
-1.24	57.2	CARD17P	2
-0.788	66.2	CARD17P	3
0.817	98.1	PYGO1	1
-0.375	74.4	PYGO1	2
0.0769	83.4	PYGO1	3

2 entries from above, ordered by “total luciferase, z-score”, ascending:
total luciferase, z-score	total luciferase, % of control	gene	siRNA no.
-1.24	57.2	CARD17P	2
-0.567	70.6	CARD17P	1

Additional reagents follow:
total luciferase, z-score	total luciferase, % of control	gene	siRNA no.
1.8	118	CHMP4C	1
1.43	110	CHMP4C	2
-1.72	47.7	CHMP4C	3
-0.657	68.8	ARHGAP6	1
-0.416	73.6	ARHGAP6	2
0.284	87.5	ARHGAP6	3
1.04	103	WDSUB1	1
-0.391	74.1	WDSUB1	2
-0.13	79.3	WDSUB1	3
1.75	117	METRN	1
-0.794	66.1	METRN	2
-1.05	61	METRN	3
-0.0885	80.1	FAM133A	1
-0.493	72.1	FAM133A	2
0.992	102	FAM133A	3
